Values quoted from earlier work, collected in patent US20030064909A1, “Laundry detergent and/or fabric care compositions comprising a transferase” (The Procter & Gamble Company, priority 1998, published 2003).
Some entries share one result that the patent states for a list of compounds. For at least one compound, name, drawing or mass did not settle the structure.

Settings: stability over a wide pH range

## Cn1sc2c(c1=O)CCC2 [Promexal, 2-methyl-4,5-trimethylene-4-isothiazolin-3-one]
  pH range over which stable: 4-12 pH
